# From PubChem BioAssay AID2672 (National Center for Advancing Translational Sciences (NCATS), 2010)
# Inconclusive means that the source gave no clear call. Such entries were picked first, then a sample of the others. Where the call is inconclusive, the potency comes from a doubtful curve fit. Activity calls are given as the source filed them. Calls follow the shape of the dose curve; as a rule, active = well fitted curve in the direction sought with a large enough effect; inconclusive = small, poorly fitted or top-dose-only effect, or another doubt; inactive = no such curve, though single readings can be large or run the other way.
# Assay: qHTS Assay Multiplex Screening to Identify Dual Action Probes in a Cell Model of Huntington: Cytoprotection in HTT Q25 expressing cells (ATP)
# Details: PC12 HTT-Q25 inducible, ATP luminescence, 40 h; series mostly up to 46.1 µM; activity change, positive = cytoprotection: at the top concentration
# From the text: NIH Chemical Genomics Center [NCGC] NIH Molecular Libraries Probe Production centers Network [MLPCN] MLPCN Grant: MH084839-01A1 Assay Submitter (PI): Wei Zheng NCGC Assay Overview: Huntington's disease is a neurodegenerative disorder caused by a trinucleotide repeat expansion in Exon 1 of the Huntingtin gene. The CAG trinucleotide encodes glutamine and polyglutamine expansions cause cell death in selective areas of the brain. Huntington polyglutamine repeats have the tendency to form aggregates which are observable in later stages of the disease. The exact nature of the aggregates, whether toxic, protective, or insignificant, is unclear. A stable PC12 cell line containing a gene fusion of Exon 1 of the Huntingtin gene linked to GFP under the control of the inducible ecdysone promoter were used as the cell-based model of Huntington Disease for high throughput screening. Exon 1 of the Huntingtin gene contained an expansion of 103 polyglutamines (Q103) which, when expressed, caused cell death and distinct, bright GFP aggregates. The amount of cell death and the size and intensity of GFP aggregates increased over time and induction level. The cell death were quantified with a measurement of ATP content in the cells. A maximal 40-50% of cell death was observed when the Huntington gene was induced in this cell line. We optimized this assay in a homogeneous 1536 well format. A quantitative high throughput screen (qHTS) was conducted on the PC12 cells which were induced to express the toxic fusion construct. Small molecules which prevented cell death were identified by using a luminescent ATP quantification method (Perkin Elmer's ATPlite). To characterize compound effects on a different form of the HTT protein, PC12 cells stably containing a construct with an ecdysone inducible promoter expressing GFP fused to the exon 1 of HTTQ25 (Huntington protein which containing a 25 ployglutamine expansion) were used. Less cytoxicity occurs upon induction of HTTQ25.
# PC12 cells stably containing a construct with an ecdysone inducible promoter expressing GFP fused to the exon 1 of HTTQ25 (Huntington protein which containing a 25 ployglutamine expansion) were used. NCGC Assay Protocol Summary: Sequence, Parameter, Description 1, Reagent, 5 uL 1500 cells/well 1536 TC treated White clear bottom plate 2, Compound, 23 nL Tebufenozide inducer (100 nM final) to all columns 3, Compound, 23 nL 40 uM to 0.5 nM Libraries 4, Time, 40 hours at 37C 5, Reagent, 5 ul ATPLite cell death assay reagent 6, Detector, 4 sec integration with a Viewlux Luminescent Media consisted of phenol red free DMEM + 5% equine serum (Hyclone # SH30072.03 ), 5% supplemented Bovine Calf Serum (Hyclone # SH30074.03 ), 1x pen/strep, no G418
Compound,Potency,"activity change, positive = cytoprotection"
CC(=O)c1cccc(-c2csc3ncnc(Sc4nnnn4C)c23)c1,"inconclusive: 15.8 µM [activator, single point]",–
COc1ccccc1-c1csc2ncnc(Sc3nnnn3C)c12,–,inactive: -24.7%
Cc1ccc(-c2csc3ncnc(Sc4nnnn4C)c23)cc1,"inconclusive: 35.5 µM [activator, single point]",–
Cn1nnnc1Sc1ncnc2scc(-c3ccccc3C#N)c12,"inconclusive: 31.6 µM [activator, partial curve, poor fit]",–
Cn1nnnc1Sc1ncnc2scc(-c3cccc4ccccc34)c12,"inconclusive: 0.0501 µM [activator, full curve, poor fit]",–
Cn1nnnc1Sc1ncnc2scc(-c3cccc(S(C)(=O)=O)c3)c12,"inconclusive: 0.398 µM [activator, full curve, poor fit]",–
Cn1nnnc1Sc1ncnc2scc(-c3ccc(S(C)(=O)=O)cc3)c12,–,inactive: -108%
COc1cccc(-c2csc3ncnc(Sc4nnnn4C)c23)c1,active: 31.6 µM,–
Cn1nnnc1Sc1ncnc2scc(-c3cccc(Cl)c3)c12,–,inactive: -144%
Cn1nnnc1Sc1ncnc2scc(-c3cnc(N)nc3)c12,"inconclusive: 20 µM [activator, partial curve, poor fit]",–
Cn1nnnc1Sc1ncnc2scc(-c3ccc[nH]3)c12,"inconclusive: 15.8 µM [activator, single point]",–
Cn1nnnc1Sc1ncnc2scc(-c3ccc(Cl)cc3)c12,–,inactive: 296%
Cn1nnnc1Sc1ncnc2scc(-c3ccccc3S(C)(=O)=O)c12,"inconclusive: 7.08 µM [activator, full curve, poor fit]",–
Cn1nnnc1Sc1ncnc2scc(-c3ccc4c(=O)ccoc4c3)c12,"inconclusive: 11.2 µM [activator, single point]",–
Cn1nnnc1Sc1ncnc2scc(-c3ccccc3Cl)c12,"inconclusive: 35.5 µM [activator, partial curve, poor fit]",–

# 3 structures out of the list, sorted by length of the SMILES, high to low:
Compound,Potency,"activity change, positive = cytoprotection"
Cn1nnnc1Sc1ncnc2scc(-c3ccc4c(=O)ccoc4c3)c12,"inconclusive: 11.2 µM [activator, single point]",–
Cn1nnnc1Sc1ncnc2scc(-c3ccc(Cl)cc3)c12,–,inactive: 296%
Cn1nnnc1Sc1ncnc2scc(-c3ccccc3C#N)c12,"inconclusive: 31.6 µM [activator, partial curve, poor fit]",–
